The structures appear in SMILES notation. Some of the results follow. Many values rest on one well or one pass, so single values are uncertain.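 The apoptosis fraction was the count of cleaved-PARP antibody-stained nuclei relative to all DNA-stained nuclei, imaged in 1,536-well plates. Screening doses were set so most cells survived, and baseline and induced cleaved-PARP levels vary greatly across cell lines.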

This assay concerns WM115. The assay can be described thus: cleaved PARP positive nuclei fraction relative to DMSO control; melanoma cells; higher = more apoptosis. The note with it: library dose: low library concentration; 72 h.
As to `O=c1[nH]nc(Sc2ncc([N+](=O)[O-])s2)n1-c1ccc2c(c1)OCCO2` + C=C(c1ccc(C(=O)O)cc1)c1cc2c(cc1C)C(C)(C)CCC2(C)C [Bexarotene] (first compound 0.2 µM, partner dose 2 µM), the “cleaved PARP positive nuclei fraction” value amounted to 266%.
As for `CC[C@]1(O)C[C@H]2CN(CCc3c([nH]c4ccccc34)[C@@](C(=O)OC)(c3cc4c(cc3OC)N(C=O)[C@H]3[C@@](O)(C(=O)OC)[C@H](OC(C)=O)[C@]5(CC)C=CCN6CC[C@]43[C@@H]65)C2)C1` [vincristine] + COc1ccc(C2=N[C@@H](c3ccc(Cl)cc3)[C@@H](c3ccc(Cl)cc3)N2C(=O)N2CCNC(=O)C2)c(OC(C)C)c1 [Nutlin-3] (first compound 0.0001 µM, partner dose 0.1 µM), the “cleaved PARP positive nuclei fraction” value turned out to be 1950%.
As for `COc1cc([C@@H]2c3cc4c(cc3[C@@H](O[C@@H]3O[C@@H]5CO[C@@H](C)O[C@H]5[C@H](O)[C@H]3O)[C@H]3COC(=O)[C@H]23)OCO4)cc(OC)c1O` [etoposide] + C[C@@H](Oc1cc(-c2cnn(C3CCNCC3)c2)cnc1N)c1c(Cl)ccc(F)c1Cl [Crizotinib] (first compound 0.02 µM, partner dose 0.2 µM), the “cleaved PARP positive nuclei fraction” value is 77.1%.
`CC[C@]1(O)C[C@H]2CN(CCc3c([nH]c4ccccc34)[C@@](C(=O)OC)(c3cc4c(cc3OC)N(C=O)[C@H]3[C@@](O)(C(=O)OC)[C@H](OC(C)=O)[C@]5(CC)C=CCN6CC[C@]43[C@@H]65)C2)C1` [vincristine] + OCc1c[nH]c2ccccc12 [Indole-3-carbinol] (first compound 0.0001 µM, partner dose 0.8 µM): the “cleaved PARP positive nuclei fraction” value was determined as 1210%.

The record behind these values is the supplement of paper PMC4604168 (melanoma cell lines).
